Source: the supplement of paper PMC10849652
Some of the results follow.

Protein sequences, listed by entry. Tags and fused reporters are not part of them. Lines headed by an entry give the natural chain unless they say otherwise; changes in a name come on top.
UniProt Q9UHD1: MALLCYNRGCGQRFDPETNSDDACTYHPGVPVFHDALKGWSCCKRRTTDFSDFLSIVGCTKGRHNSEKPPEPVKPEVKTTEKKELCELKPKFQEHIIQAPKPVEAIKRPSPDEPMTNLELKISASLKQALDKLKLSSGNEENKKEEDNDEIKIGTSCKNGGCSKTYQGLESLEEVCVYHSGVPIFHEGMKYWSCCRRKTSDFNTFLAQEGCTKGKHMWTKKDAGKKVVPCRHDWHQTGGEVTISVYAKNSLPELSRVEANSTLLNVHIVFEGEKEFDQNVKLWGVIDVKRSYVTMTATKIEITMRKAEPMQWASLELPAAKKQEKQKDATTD
UniProt Q9UBY8, whole entry, looked up: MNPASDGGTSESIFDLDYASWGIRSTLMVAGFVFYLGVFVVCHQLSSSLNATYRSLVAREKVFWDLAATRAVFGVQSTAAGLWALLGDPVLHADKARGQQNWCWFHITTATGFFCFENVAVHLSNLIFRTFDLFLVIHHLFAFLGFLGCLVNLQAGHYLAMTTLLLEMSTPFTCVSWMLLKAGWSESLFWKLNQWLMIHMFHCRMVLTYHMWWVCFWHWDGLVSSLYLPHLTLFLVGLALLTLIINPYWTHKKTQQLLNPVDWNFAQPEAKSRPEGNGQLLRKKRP
UniProt Q8N129: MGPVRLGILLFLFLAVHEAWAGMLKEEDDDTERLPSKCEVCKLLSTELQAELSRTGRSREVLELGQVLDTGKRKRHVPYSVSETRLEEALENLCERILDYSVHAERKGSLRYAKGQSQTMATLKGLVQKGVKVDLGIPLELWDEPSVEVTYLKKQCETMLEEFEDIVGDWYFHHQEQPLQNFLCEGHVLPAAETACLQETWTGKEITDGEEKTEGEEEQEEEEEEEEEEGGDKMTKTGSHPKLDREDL
UniProt Q9H8M5: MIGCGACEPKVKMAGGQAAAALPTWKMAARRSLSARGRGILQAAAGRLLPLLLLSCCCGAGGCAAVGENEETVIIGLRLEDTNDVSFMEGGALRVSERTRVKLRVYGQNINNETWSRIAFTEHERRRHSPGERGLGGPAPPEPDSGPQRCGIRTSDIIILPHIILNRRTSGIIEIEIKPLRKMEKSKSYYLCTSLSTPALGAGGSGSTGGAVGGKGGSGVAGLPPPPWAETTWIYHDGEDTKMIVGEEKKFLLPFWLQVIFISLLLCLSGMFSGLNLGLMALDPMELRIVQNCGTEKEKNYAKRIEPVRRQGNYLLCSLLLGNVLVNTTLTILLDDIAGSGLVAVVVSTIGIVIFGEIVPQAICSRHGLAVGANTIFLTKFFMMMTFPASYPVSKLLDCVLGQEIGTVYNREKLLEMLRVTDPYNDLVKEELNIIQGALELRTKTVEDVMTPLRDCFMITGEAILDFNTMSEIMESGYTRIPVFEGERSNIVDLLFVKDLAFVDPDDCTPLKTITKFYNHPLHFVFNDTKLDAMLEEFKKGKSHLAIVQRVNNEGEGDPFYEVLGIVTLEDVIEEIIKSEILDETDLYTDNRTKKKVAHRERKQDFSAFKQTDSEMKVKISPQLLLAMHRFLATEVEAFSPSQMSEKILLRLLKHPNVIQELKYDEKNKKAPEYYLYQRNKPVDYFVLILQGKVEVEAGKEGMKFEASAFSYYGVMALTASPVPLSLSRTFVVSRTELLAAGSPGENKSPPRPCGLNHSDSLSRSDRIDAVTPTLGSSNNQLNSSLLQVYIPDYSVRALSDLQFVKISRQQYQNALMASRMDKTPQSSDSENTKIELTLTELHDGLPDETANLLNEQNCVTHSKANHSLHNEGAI
UniProt Q8NCH0: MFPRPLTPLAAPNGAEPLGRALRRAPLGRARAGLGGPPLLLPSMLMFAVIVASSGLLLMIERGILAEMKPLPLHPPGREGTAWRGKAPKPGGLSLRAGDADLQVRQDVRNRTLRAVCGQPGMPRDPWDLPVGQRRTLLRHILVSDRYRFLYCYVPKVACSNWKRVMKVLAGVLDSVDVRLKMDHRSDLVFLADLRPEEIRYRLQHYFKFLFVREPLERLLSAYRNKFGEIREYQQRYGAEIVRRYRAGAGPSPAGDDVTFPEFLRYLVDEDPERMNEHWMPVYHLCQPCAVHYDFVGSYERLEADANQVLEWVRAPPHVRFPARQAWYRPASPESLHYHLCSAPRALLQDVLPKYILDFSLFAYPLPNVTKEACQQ
UniProt P51788: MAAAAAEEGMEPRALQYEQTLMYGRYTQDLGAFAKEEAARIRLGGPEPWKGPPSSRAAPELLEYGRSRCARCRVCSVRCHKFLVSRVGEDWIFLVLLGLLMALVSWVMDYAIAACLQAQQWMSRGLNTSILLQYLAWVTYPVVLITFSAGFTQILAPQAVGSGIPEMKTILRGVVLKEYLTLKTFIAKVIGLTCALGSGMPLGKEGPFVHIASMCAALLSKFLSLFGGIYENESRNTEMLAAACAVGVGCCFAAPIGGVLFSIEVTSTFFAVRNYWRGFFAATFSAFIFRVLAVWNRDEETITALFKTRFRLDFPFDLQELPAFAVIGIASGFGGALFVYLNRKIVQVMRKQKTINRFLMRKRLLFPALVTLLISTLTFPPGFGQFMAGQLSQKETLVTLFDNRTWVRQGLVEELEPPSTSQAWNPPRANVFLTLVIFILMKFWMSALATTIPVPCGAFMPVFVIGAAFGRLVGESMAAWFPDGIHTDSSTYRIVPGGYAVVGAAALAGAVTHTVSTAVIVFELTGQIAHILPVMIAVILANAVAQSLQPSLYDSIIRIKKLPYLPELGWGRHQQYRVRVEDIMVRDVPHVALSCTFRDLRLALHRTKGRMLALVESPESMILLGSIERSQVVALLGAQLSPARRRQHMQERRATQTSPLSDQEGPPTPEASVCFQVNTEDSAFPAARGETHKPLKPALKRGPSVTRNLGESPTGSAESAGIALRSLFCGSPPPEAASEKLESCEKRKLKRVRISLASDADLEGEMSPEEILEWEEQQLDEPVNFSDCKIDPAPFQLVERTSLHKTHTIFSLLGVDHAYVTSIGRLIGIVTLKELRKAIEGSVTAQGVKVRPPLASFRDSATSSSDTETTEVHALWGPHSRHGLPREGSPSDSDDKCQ
UniProt Q9UIV1, whole entry, looked up: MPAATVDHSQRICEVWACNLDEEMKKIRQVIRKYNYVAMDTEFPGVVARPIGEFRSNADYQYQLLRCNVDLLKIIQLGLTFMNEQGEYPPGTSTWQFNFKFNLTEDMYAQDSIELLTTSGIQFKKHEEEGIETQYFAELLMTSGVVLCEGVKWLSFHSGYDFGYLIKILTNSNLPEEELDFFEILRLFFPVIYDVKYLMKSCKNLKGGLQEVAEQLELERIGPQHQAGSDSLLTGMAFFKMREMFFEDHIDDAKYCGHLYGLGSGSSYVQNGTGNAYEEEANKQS
UniProt Q9BW66: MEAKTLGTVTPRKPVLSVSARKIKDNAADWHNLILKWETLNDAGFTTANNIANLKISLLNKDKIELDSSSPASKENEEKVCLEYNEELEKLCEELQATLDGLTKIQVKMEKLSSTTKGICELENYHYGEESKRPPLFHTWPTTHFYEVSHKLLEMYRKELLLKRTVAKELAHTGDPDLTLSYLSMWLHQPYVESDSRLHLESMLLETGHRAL
UniProt O95628: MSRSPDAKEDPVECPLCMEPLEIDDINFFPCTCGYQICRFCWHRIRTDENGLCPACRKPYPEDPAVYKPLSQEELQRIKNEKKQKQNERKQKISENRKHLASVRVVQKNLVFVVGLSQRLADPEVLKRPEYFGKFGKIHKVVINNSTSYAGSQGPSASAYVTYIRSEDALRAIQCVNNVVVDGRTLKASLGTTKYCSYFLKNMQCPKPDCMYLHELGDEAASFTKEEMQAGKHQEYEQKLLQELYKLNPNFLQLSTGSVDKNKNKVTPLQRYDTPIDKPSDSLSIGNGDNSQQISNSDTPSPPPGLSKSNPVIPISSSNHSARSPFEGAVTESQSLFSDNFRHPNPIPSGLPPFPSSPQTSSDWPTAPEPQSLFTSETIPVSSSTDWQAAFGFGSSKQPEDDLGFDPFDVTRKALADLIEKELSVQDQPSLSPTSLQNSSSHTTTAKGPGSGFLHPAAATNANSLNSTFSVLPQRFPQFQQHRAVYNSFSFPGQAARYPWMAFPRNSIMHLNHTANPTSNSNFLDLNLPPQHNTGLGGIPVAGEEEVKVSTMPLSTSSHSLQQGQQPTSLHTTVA
UniProt Q9NRP2: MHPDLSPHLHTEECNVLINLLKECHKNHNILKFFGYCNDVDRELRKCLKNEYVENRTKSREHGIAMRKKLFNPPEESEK
UniProt Q7Z7K0: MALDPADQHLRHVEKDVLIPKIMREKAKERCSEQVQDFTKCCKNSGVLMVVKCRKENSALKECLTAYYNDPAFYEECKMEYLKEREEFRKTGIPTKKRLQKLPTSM
UniProt Q9NYJ1, whole entry, looked up: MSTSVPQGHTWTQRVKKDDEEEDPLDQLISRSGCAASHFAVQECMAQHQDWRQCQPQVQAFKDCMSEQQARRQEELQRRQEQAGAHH
UniProt P51790: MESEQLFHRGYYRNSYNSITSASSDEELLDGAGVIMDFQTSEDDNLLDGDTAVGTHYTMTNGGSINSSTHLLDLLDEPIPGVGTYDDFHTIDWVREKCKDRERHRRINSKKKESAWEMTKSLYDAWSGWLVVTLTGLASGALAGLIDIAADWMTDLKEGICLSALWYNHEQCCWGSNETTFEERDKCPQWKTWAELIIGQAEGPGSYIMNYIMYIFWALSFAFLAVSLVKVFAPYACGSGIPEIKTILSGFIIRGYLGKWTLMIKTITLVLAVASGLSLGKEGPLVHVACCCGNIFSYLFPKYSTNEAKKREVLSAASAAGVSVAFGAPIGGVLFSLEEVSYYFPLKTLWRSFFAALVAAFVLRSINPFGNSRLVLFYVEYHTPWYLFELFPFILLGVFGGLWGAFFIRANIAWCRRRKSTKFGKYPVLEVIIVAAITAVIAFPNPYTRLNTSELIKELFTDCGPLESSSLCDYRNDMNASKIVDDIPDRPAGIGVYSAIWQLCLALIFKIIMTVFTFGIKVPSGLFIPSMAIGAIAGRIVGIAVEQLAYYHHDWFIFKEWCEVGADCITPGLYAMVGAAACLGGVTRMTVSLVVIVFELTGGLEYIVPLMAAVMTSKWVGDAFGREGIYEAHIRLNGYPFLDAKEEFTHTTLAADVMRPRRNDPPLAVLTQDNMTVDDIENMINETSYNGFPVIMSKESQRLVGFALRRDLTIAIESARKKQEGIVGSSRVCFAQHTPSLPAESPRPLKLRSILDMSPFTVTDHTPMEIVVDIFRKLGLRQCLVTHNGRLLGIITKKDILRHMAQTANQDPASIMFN
UniProt P09497: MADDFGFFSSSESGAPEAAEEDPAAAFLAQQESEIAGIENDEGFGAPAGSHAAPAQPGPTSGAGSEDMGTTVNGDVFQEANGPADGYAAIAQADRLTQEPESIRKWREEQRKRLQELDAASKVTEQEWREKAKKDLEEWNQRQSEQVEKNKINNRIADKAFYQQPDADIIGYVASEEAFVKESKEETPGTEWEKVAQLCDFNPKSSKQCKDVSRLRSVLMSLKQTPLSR
UniProt Q15417: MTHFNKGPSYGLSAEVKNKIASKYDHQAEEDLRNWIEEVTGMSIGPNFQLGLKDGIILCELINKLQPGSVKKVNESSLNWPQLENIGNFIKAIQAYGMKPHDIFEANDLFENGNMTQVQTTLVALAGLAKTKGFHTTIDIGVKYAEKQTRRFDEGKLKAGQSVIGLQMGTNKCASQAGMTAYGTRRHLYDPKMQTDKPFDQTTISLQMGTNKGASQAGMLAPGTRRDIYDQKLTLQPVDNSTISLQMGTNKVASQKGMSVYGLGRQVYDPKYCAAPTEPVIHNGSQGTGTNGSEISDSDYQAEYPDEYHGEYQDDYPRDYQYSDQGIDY
UniProt Q8WUX9: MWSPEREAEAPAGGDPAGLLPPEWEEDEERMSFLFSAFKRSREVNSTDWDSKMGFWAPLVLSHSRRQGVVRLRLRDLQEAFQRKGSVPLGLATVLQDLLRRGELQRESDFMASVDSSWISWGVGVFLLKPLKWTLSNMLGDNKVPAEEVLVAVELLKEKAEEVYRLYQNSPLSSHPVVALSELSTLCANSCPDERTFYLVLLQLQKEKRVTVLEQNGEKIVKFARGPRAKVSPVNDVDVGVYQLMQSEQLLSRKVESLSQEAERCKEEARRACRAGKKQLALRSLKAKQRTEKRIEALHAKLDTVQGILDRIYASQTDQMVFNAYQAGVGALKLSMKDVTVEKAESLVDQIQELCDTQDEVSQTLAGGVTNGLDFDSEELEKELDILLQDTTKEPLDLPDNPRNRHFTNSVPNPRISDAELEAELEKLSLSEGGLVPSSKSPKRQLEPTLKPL

How the values were obtained:
Assay in all cases: log2 fold change, soluble protein after heating vs DMSO (PISA); higher = thermal stabilisation; K562 cells, 10 uM, 30 min; active = over 0.2 and 3.5 SD of the protein, either way, in both replicates (recomputed)
bafetinib = compound: Cc1ccc(NC(=O)c2ccc(CN3CC[C@H](N(C)C)C3)c(C(F)(F)F)c2)cc1Nc1nccc(-c2cncnc2)n1 [bafetinib]
How it was run: (§1)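 K562 cells (2×10^6 cells/mL) were treated with 10 μM compound for 30 min, and aliquots were heated for 3 min over 48°C-58°C. Pooled aliquots were extracted in PBS with 0.5% NP-40 at 4°C, and the supernatant after 21,000xg for 90 min was measured by TMTpro 16plex LC-MS/MS with channel sums equalised. Reported thermal stability, relative to control samples and from duplicates, is a log2 fold change.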

[1] = compound: Cc1cccc(CC(=O)N2CCc3c2ccc(-c2cn(C)c4ncnc(N)c24)c3F)n1
How it was run: as §1

nilotinib = compound: Cc1cn(-c2cc(NC(=O)c3ccc(C)c(Nc4nccc(-c5cccnc5)n4)c3)cc(C(F)(F)F)c2)cn1 [nilotinib]
How it was run: as §1

[2] = compound: Cc1nc(Nc2n[nH]c3c2CN(C(=O)N[C@H](CN(C)C)c2ccccc2)C3(C)C)c2sccc2n1
How it was run: as §1

dasatinib = compound: Cc1nc(Nc2ncc(C(=O)Nc3c(C)cccc3Cl)s2)cc(N2CCN(CCO)CC2)n1 [dasatinib]
How it was run: as §1

[3] = compound: Cc1ncc(-c2ccnc(Nc3ccc(S(C)(=O)=O)cc3)n2)n1C(C)C
How it was run: as §1

[4] = compound: Cn1cc(-c2ccc3c(c2)CCN3C(=O)Cc2cccc(C(F)(F)F)c2)c2c(N)ncnc21
How it was run: as §1

[5] = compound: Cn1cc(-c2ccc3nnc(C(F)(F)c4ccc5ncccc5c4)n3n2)cn1
How it was run: as §1

tipifarnib = compound: Cn1cncc1[C@@](N)(c1ccc(Cl)cc1)c1ccc2c(c1)c(-c1cccc(Cl)c1)cc(=O)n2C [tipifarnib]
How it was run: as §1

mubritinib = compound: FC(F)(F)c1ccc(/C=C/c2nc(COc3ccc(CCCCn4ccnn4)cc3)co2)cc1 [mubritinib]
How it was run: as §1

[6] = compound: NC(=O)Nc1cc(-c2cccc(F)c2)sc1C(=O)N[C@H]1CCCNC1
How it was run: as §1

[7] = compound: NC(=O)c1cnc(N[C@@H]2CCCC[C@@H]2N)nc1Nc1cccc(-n2nccn2)c1
How it was run: as §1

[8] = compound: NC1(c2ccc(-c3nc4ccn5c(=O)[nH]nc5c4cc3-c3ccccc3)cc2)CCC1
How it was run: as §1

[9] = compound: NCC(=O)Nc1ccc(-n2nc(C(F)(F)F)cc2-c2ccc3c(ccc4ccccc43)c2)cc1
How it was run: as §1

entinostat = compound: Nc1ccccc1NC(=O)c1ccc(CNC(=O)OCc2cccnc2)cc1 [entinostat]
How it was run: as §1

vorinostat = compound: O=C(CCCCCCC(=O)Nc1ccccc1)NO [vorinostat]
How it was run: as §1

citarinostat = compound: O=C(CCCCCCNC(=O)c1cnc(N(c2ccccc2)c2ccccc2Cl)nc1)NO [citarinostat]
How it was run: as §1

silmitasertib = compound: O=C(O)c1ccc2c(c1)nc(Nc1cccc(Cl)c1)c1ccncc12 [silmitasertib]
How it was run: as §1

[10] = compound: O=C1NC(=O)C(c2cnc3ccccn23)=C1c1cn2c3c(cc(F)cc13)CN(C(=O)N1CCCCC1)CC2
How it was run: as §1

[11] = compound: c1cc(OCCN2CCCCC2)cc(-c2n[nH]c3ccc(-c4nnc[nH]4)cc23)c1
How it was run: as §1

Measured: log2 fold change

CHORDC1 (UniProt Q9UHD1)
inactive: bafetinib 0.045 | [1] 0.019 | nilotinib 0.121 | [2] 0.027 | dasatinib -0.017 | [3] 0.01 | [4] 0.058 | [5] -0.003 | tipifarnib -0.073 | mubritinib 0.176 | [6] -0.005 | [7] -0.067 | [8] -0.067 | [9] -0.04 | entinostat -0.002 | vorinostat -0.001 | citarinostat 0.037 | silmitasertib -0.013 | [10] -0.028 | [11] 0.018

CKMT1A (UniProt P12532)
inactive: bafetinib -0.027 | [1] -0.052 | nilotinib -0.048 | [2] 0.013 | dasatinib 0.019 | [3] -0.001 | [4] 0 | [5] 0.022 | tipifarnib 0.083 | mubritinib -0.005 | [6] -0.03 | [7] -0.043 | [8] 0.138 | [9] -0.013 | entinostat -0.023 | vorinostat 0.033 | citarinostat 0.033 | silmitasertib -0.03 | [10] -0.018 | [11] -0.021

CLN8 (UniProt Q9UBY8)
active: [1] -0.662
inactive: bafetinib -0.209 | nilotinib 0.051 | [2] -0.11 | dasatinib 0.032 | [3] -0.083 | [4] 0.258 | [5] 0.266 | tipifarnib 0.003 | mubritinib -0.08 | [6] -0.062 | [7] -0.002 | [8] 0.334 | [9] 0 | entinostat 0.058 | vorinostat -0.061 | citarinostat 0.064 | silmitasertib 0.075 | [11] -0.095

CNPY4 (UniProt Q8N129)
inactive: bafetinib -0.01 | [1] -0.027 | nilotinib -0.018 | [2] 0.029 | dasatinib 0.117 | [3] -0.021 | [4] 0.075 | [5] 0.07 | tipifarnib 0.04 | mubritinib 0.017 | [6] -0.07 | [7] -0.128 | [8] 0.088 | [9] 0.023 | entinostat 0.015 | vorinostat -0.03 | silmitasertib 0.026

CNNM2 (UniProt Q9H8M5)
inactive: bafetinib -0.178 | [1] -0.228 | nilotinib 0.129 | [2] -0.017 | dasatinib -0.095 | [3] -0.071 | [4] 0.021 | [5] -0.113 | tipifarnib 0.173 | mubritinib 0.01 | [6] 0.063 | [8] 0.062 | [9] -0.215 | entinostat 0.161 | vorinostat -0.124 | citarinostat 0.147 | silmitasertib 0.09 | [10] 0.016 | [11] -0.008

CHST14 (UniProt Q8NCH0)
inactive: bafetinib -0.224 | [1] 0.011 | nilotinib -0.063 | [2] -0.014 | dasatinib 0.038 | [3] 0.019 | [4] -0.127 | [5] -0.012 | tipifarnib 0.082 | mubritinib 0.052 | [7] -0.018 | [8] -0.238 | [9] -0.023 | vorinostat 0.018 | silmitasertib -0.036 | [10] -0.02

CLCN2 (UniProt P51788)
inactive: bafetinib -0.035 | [1] 0.085 | nilotinib 0.108 | [2] -0.007 | dasatinib 0.082 | [3] -0.123 | [4] -0.055 | [5] 0.005 | tipifarnib -0.046 | mubritinib 0.067 | [6] 0.039 | [7] 0.032 | [8] -0.254 | [9] -0.019 | entinostat 0.117 | vorinostat 0.015 | silmitasertib 0.046 | [10] 0.041

CNOT7 (UniProt Q9UIV1)
inactive: bafetinib 0.059 | [1] -0.037 | nilotinib -0.077 | [2] -0.057 | dasatinib -0.255 | [3] 0.002 | [4] -0.034 | [5] -0.051 | tipifarnib -0.075 | mubritinib 0.014 | [6] -0.053 | [7] 0.039 | [8] 0 | [9] 0.028 | entinostat 0.091 | vorinostat 0.152 | citarinostat -0.12 | silmitasertib 0.12 | [10] 0.032 | [11] -0.089

CINP isoform 3 (UniProt Q9BW66)
inactive: bafetinib -0.036 | [1] -0.058 | nilotinib -0.017 | [2] -0.129 | dasatinib 0.061 | [3] 0.01 | [4] -0.018 | [5] 0.044 | tipifarnib -0.002 | mubritinib -0.034 | [6] -0.026 | [7] -0.011 | [8] 0.049 | [9] 0.003 | entinostat -0.101 | vorinostat 0.005 | citarinostat 0.01 | silmitasertib 0.064 | [10] 0.027 | [11] 0.008

CNOT4 isoform 9 (UniProt O95628)
inactive: bafetinib 0.081 | [1] 0.067 | nilotinib 0.094 | [2] -0.172 | dasatinib 0.074 | [3] 0 | [4] 0.096 | [5] 0.036 | tipifarnib -0.019 | mubritinib 0.055 | [7] -0.115 | [8] -0.077 | [9] 0.11 | vorinostat -0.003 | citarinostat -0.038 | silmitasertib 0.024 | [11] 0.178

CMC2 (UniProt Q9NRP2)
inactive: bafetinib -0.107 | [1] -0.005 | nilotinib -0.04 | [2] 0.045 | dasatinib 0.092 | [3] -0.031 | [4] -0.015 | [5] 0.124 | tipifarnib 0.112 | mubritinib 0.024 | [6] 0.033 | [7] 0.017 | [8] -0.006 | [9] -0.044 | entinostat -0.01 | vorinostat -0.119 | citarinostat -0.101 | silmitasertib 0.007 | [10] -0.084 | [11] -0.015

CMC1 (UniProt Q7Z7K0)
inactive: bafetinib -0.149 | [1] 0.013 | nilotinib 0.109 | [2] -0.2 | dasatinib 0.045 | [3] 0.068 | [4] -0.055 | [5] 0.065 | tipifarnib 0.186 | mubritinib 0.101 | [6] 0.037 | [7] 0.104 | [8] -0.04 | [9] 0.02 | entinostat 0.004 | vorinostat -0.097 | citarinostat 0.042 | silmitasertib 0.133 | [10] 0.033 | [11] -0.014

COA4 isoform 2 (UniProt Q9NYJ1)
inactive: bafetinib -0.083 | [1] -0.057 | nilotinib 0.065 | [2] -0.06 | dasatinib 0.311 | [3] -0.044 | [4] 0.05 | [5] 0.308 | tipifarnib 0.049 | mubritinib 0.047 | [6] 0.073 | [7] 0.04 | [8] 0.006 | entinostat 0.07 | vorinostat -0.066 | citarinostat -0.03 | silmitasertib 0.014 | [10] -0.018 | [11] -0.078

CLCN3 isoform 2 (UniProt P51790)
inactive: bafetinib -0.044 | [1] 0.076 | nilotinib -0.016 | [2] 0.034 | dasatinib 0.027 | [3] 0.017 | [4] 0.017 | [5] 0.027 | tipifarnib 0.004 | mubritinib -0.004 | [6] 0.013 | [7] 0.014 | [8] -0.17 | [9] 0.024 | entinostat 0.019 | vorinostat 0.037 | citarinostat -0.002 | silmitasertib -0.015 | [10] -0.002 | [11] 0.283

CLTB (UniProt P09497)
inactive: bafetinib 0.095 | [1] 0.002 | nilotinib 0.077 | [2] 0.024 | dasatinib 0.081 | [3] 0.005 | [4] -0.02 | [5] -0.019 | tipifarnib -0.006 | mubritinib -0.016 | [6] 0.088 | [7] 0.101 | [8] 0.043 | [9] 0.117 | entinostat -0.076 | vorinostat 0.003 | citarinostat -0.013 | silmitasertib -0.005 | [10] -0.043 | [11] 0.07

CNN3 (UniProt Q15417)
inactive: bafetinib 0.02 | [1] -0.025 | nilotinib -0.066 | [2] -0.056 | dasatinib -0.057 | [3] 0.108 | [4] 0.023 | tipifarnib -0.107 | mubritinib 0.06 | [6] -0.051 | [7] -0.125 | [8] -0.124 | [9] -0.144 | entinostat 0.091 | vorinostat 0.023 | citarinostat 0.047 | silmitasertib 0.047 | [10] -0.032 | [11] -0.001

CHMP7 (UniProt Q8WUX9)
inactive: bafetinib -0.074 | [1] 0.01 | nilotinib 0.071 | [2] -0.095 | dasatinib -0.272 | [3] 0.09 | [4] -0.111 | [5] -0.01 | tipifarnib -0.164 | mubritinib 0.193 | [6] 0 | [7] -0.031 | [8] -0.107 | entinostat 0.035 | vorinostat 0.033 | citarinostat 0.159 | silmitasertib 0 | [10] 0.199 | [11] 0.102
